Measurements published in PubChem BioAssay (NCATS).
Some of the results follow. These are further read-outs of the screen, such as a control signal, another cell line or another target. No call is given for them. Compounds called inactive in the main read-out are mostly missing here. Potencies come from curve fits of mixed quality, noted in brackets.

Test: qHTS for identification of novel therapeutic agents for treatment of microphthalmiaassociated transcription factor (MiT) renal cell carcinoma (RCC) (AID 1963991)
Conditions: CellTiter-Glo, 48 h; for z-score: stronger effect = lower value
Procedure, shortened: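 Three TFE3-fusion RCC cell lines (UOK109, UOK124, UOK145), 500 cells/well, were exposed to the 1912-compound MIPE 4.0 library for 48 hours at 37 C. Viability was read by CellTiter-Glo luminescence, normalised to DMSO (100%) and empty wells (0%), with 11-concentration curve fits.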

[1] = TFE3-RCC UOK109 viability, measured here: UOK109 Z-AUC
[2] = TFE3-RCC viability, measured here: UOK124 Z-AUC
[3] = TFE3-RCC viability, measured here: UOK145 Z-AUC
[4] = TFE3-RCC viability, measured here: UOK145 cell viability
[5] = TFE3-RCC viability, measured here: UOK124 cell viability

Row | Compound | z-score [1] | z-score [2] | z-score [3] | AC50 [4] | AC50 [5]
1 | CC1(C)CC(O)CC(C)(C)N1[O] | 1.13 | 0.37 | -0.31 | 1.66 µM [falling, full curve] | 
2 | COc1ccc(C2Sc3ccccc3N(CCN(C)C)C(=O)C2OC(C)=O)cc1 (centres undefined) | 0.82 | 0.112 | 0.481 | 20.9 µM [falling, single point] | 
3 | OC[C@H]1O[C@@H](O[C@H]2[C@@H](O)[C@@](O)(CO)O[C@@H]2CO)[C@H](O)[C@@H](O)[C@@H]1O | 0.576 | 0.477 | 0.744 | 26.4 µM [falling, partial curve, poor fit] | 
4 | CC(=O)O[C@]1(C(C)=O)CC[C@@H]2[C@@H]3C[C@H](C)C4=CC(=O)CC[C@]4(C)[C@H]3CC[C@@]21C | 0.59 | 0.371 | 1.39 | 26.4 µM [falling, partial curve] | 
5 | CN(C[C@@H]1COCCO1)S(=O)(=O)Nc1ccc2ccc3ncc(-c4cnn(C)c4)cc3c(=O)c2c1 | -0.165 | 0.601 | -0.335 | 16.6 µM [falling, partial curve] | 
6 | CO[C@H]1C[C@@H]2CC[C@@H](C)[C@@](O)(O2)C(=O)C(=O)N2CCCC[C@@H]2C(=O)O[C@H]([C@H](C)C[C@@H]2CC[C@H](OCCO)[C@H](OC)C2)CC(=O)[C@H](C)C=C(C)[C@@H](O)[C@@H](OC)C(=O)[C@H](C)C[C@H](C)C=CC=CC=C1C | -0.65 | -0.857 | -1.32 | 3.72 µM [falling, full curve] | 3.32 µM [falling, partial curve]
7 | Nc1nc2[nH]cc(CCc3ccc(C(=O)N[C@@H](CCC(=O)O)C(=O)O)cc3)c2c(=O)[nH]1 | 0.597 | -2.07 | -0.844 | 1.05 µM [falling, full curve] | 0.118 µM [falling, full curve]
8 | Cc1c(O)cccc1C(=O)N[C@@H](CSc1ccccc1)[C@H](O)CN1C[C@H]2CCCC[C@@H]2C[C@@H]1C(=O)NC(C)(C)C | 0.0757 | -0.0375 | 1.18 | 33.2 µM [falling, single point] | 29.6 µM [falling, partial curve]
9 | Cc1cccc2c1CC[C@H](CN1CCC(c3c(Cl)cccc3Cl)CC1)C[C@@H]2O | 0.405 | -0.0606 | 0.275 | 23.5 µM [falling, single point] | 20.9 µM [falling, partial curve]
10 | CC(C=CC(=O)NO)=C[C@@H](C)C(=O)c1ccc(N(C)C)cc1 | -0.596 | -2.3 | -0.674 | 2.96 µM [falling, full curve] | 0.743 µM [falling, full curve]
11 | C[C@H]1[C@H](O)O[C@@H]2O[C@@]3(C)CC[C@@H]4[C@H](C)CC[C@@H]1[C@@]24OO3 | -0.295 | -0.261 | -0.112 | 18.7 µM [falling, partial curve, poor fit] | 23.5 µM [falling, single point]
12 | Cn1cc(C=CC(=O)c2cccc(F)c2)cc1C=CC(=O)NO | 0.633 | -2.59 | 0.676 | 26.4 µM [falling, single point] | 
13 | O=C(c1ccc(F)c(F)c1Nc1ccc(I)cc1F)N1CC(O)([C@H]2CCCCN2)C1 | -1.24 | -1.05 | 0.125 | 16.6 µM [falling, partial curve] | 14.8 µM [falling, partial curve]
14 | COC1=C2C[C@@H](C)C[C@H](OC)[C@@H](O)[C@@H](C)C=C(C)[C@H](OC(N)=O)[C@@H](OC)C=CC=C(C)C(=O)NC(=CC1=O)C2=O | -0.592 | 0.305 | -0.61 | 4.69 µM [falling, full curve] | 3.72 µM [falling, full curve]
15 | CCCCc1nc2cc(C=CC(=O)NO)ccc2n1CCN(CC)CC | -1.08 | -1.42 | -0.619 | 5.26 µM [falling, full curve] | 3.32 µM [falling, partial curve]
16 | Cc1ccc(S(=O)(=O)NC(=O)NN2CC3CCCC3C2)cc1 (centres undefined) | -1.13 | -0.281 | 0.558 | 18.7 µM [falling, single point] | 26.4 µM [falling, partial curve]
17 | CC(=O)OCC(=O)[C@@]1(O)[C@H](C)C[C@H]2[C@@H]3C=C(C)C4=Cc5c(cnn5-c5ccccc5)C[C@]4(C)[C@@H]3[C@@H](O)C[C@@]21C | -0.297 | 0.349 | -0.102 | 16.6 µM [falling, partial curve] | 10.5 µM [falling, partial curve]
